Reference: patent EP0036153A1, “1,1-Diphenyl-2-(1,2,4-triazol-1-yl)-ethan-1-oles as antimycotic agents” (BASF Aktiengesellschaft, priority 1980, dated 1981)
The name of at least one read-out is uncertain.

Tested on: Candida albicans
Assay: Experimental candidosis of the mouse by Candida albicans (survival after oral treatment)
Assay type: in vivo, Maus
Conditions: 2 x tgl. 100 mg/kg oral for 4 days, groups of 10 mice

Clc1ccc(COC(Cn2ccnc2)c2ccc(Cl)cc2Cl)c(Cl)c1 (stereo not shown) [Miconazol, 1-[2,4-Dichlor-ß-(2,4-dichlorbenzyloxy)phenäthyl]-imi-dazolnitrat, reference compound]
Anzahl der überlebenden Tiere am 1. Tag post infectionem: 10
Anzahl der überlebenden Tiere am 2. Tag post infectionem: 10
Anzahl der überlebenden Tiere am 3. Tag post infectionem: 8
Anzahl der überlebenden Tiere am 4. Tag post infectionem: 8
Anzahl der überlebenden Tiere am 5. Tag post infectionem: 6
Anzahl der überlebenden Tiere am 6. Tag post infectionem: 4
Anzahl der überlebenden Tiere am 7. Tag post infectionem: 2
Anzahl der überlebenden Tiere am 8. Tag post infectionem: 2
Anzahl der überlebenden Tiere am 9. Tag post infectionem: 1
Anzahl der überlebenden Tiere am 10. Tag post infectionem: 1
